PubChem BioAssay AID686943 – Drosophila RNAi Screening Center | 2013

Assay: 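Knockdowns that increase or decrease active ERK after insulin receptor stimulation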 (primary screen)
System: Drosophila S2R+ haemocyte-like cells expressing YFP-tagged ERK (Rolled)
Reagents: long dsRNA against Drosophila genes
Treatment: insulin stimulation versus unstimulated cells; dose and duration not given
Measured: 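Antibody staining for doubly phosphorylated ERK divided by ERK-YFP signal, as plate z-scores, in insulin-treated and untreated cells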
Direction: replicate 1, z-score of dpERK with insulin: higher = more active ERK per ERK-YFP after insulin
The screen tested about 23,000 reagents; below is a random part of those with a known target gene and a result. 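Extra replicates exist only for a retested subset of genes; insulin dose and duration not given; both raised and lowered dpERK matter.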 Names joined by + are all predicted targets of the reagent. Not all columns of the deposit are shown. Not stated in the record: the amount of reagent, the time to read-out.

For tomboy40 [DRSC04918], what was measured?
replicate 1, z-score of dpERK with insulin: 0.12

What is on record for CG33469 [DRSC22900]?
replicate 1, z-score of dpERK with insulin: -0.12

What did the screen give for lgs [DRSC17152]?
replicate 1, z-score of dpERK with insulin: -0.43

With CG43181 [DRSC17559], how do the results read?
replicate 1, z-score of dpERK with insulin: -0.98

What is on record for Chchd3 [DRSC16981]?
replicate 1, z-score of dpERK with insulin: -0.45

What did the screen give for CG13031 [DRSC09911]?
replicate 1, z-score of dpERK with insulin: 1.1

What is on record for CG9021 [DRSC03128]?
replicate 1, z-score of dpERK with insulin: 0.65

With PNPase [DRSC14304], what was measured?
replicate 1, z-score of dpERK with insulin: 0.05

How did the screen score CG13102 + Rcd-1r [DRSC03266]?
replicate 1, z-score of dpERK with insulin: -0.13

Which result is listed for unc [DRSC20511]?
replicate 1, z-score of dpERK with insulin: -0.52

With CG31091 [DRSC15933], what was measured?
replicate 1, z-score of dpERK with insulin: 0.67

Reformatted: entries from further up
{"gene":"CG33469","dsRNA":"DRSC22900","replicate 1, z-score of dpERK with insulin":-0.12}
{"gene":"lgs","dsRNA":"DRSC17152","replicate 1, z-score of dpERK with insulin":-0.43}

Additional records follow.
Which result is listed for Oseg5 [DRSC03209]?
replicate 1, z-score of dpERK with insulin: 0.65

With Os-C [DRSC16778], how do the results read?
replicate 1, z-score of dpERK with insulin: 0.27

With CG34244 [DRSC09304], what does the deposit list?
replicate 1, z-score of dpERK with insulin: -1.24

For CG17078 [DRSC00484], what does the deposit list?
replicate 1, z-score of dpERK with insulin: -1.06

How did the screen score CG6083 [DRSC10580]?
replicate 1, z-score of dpERK with insulin: 0.23

For TTLL15 [DRSC15543], how do the results read?
replicate 1, z-score of dpERK with insulin: 0.99

With gcl [DRSC07623], what does the deposit list?
replicate 1, z-score of dpERK with insulin: 0.08

With CG43759 [DRSC19464], what does the deposit list?
replicate 1, z-score of dpERK with insulin: 0.16

How did the screen score CG43759 [DRSC19543]?
replicate 1, z-score of dpERK with insulin: -0.93

For Syt14 [DRSC12331], what does the deposit list?
replicate 1, z-score of dpERK with insulin: -0.64
